PubChem BioAssay AID1259424 | University of Nebraska Medical Center, 2018
In all, the deposit lists about 14,000 reagents; shown is an unselected part. 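Higher correlation or smaller distance means closer resemblance to KSR1 loss; control wells, including KSR1 knockdowns, recur on many plates.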 Not all columns of the deposit are shown. Not given: the time to read-out.

Aim: 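Seek colon cancer survival genes behaving like KSR1, using a six-gene signature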 (primary screen)
Cell system: human HCT116 colon cancer cells
Reagents: siRNA pool against human genes, 50 nM
Read-out: 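Log2 levels of six mRNAs (branched-DNA multiplex), adjusted by two reference genes and the non-targeting median, then scored against the average KSR1 knockdown pattern as Pearson r and euclidean distance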
Scale: mean correlation with KSR1 profile and KSR1 correlation: higher = expression change more like KSR1 knockdown; mean distance from KSR1 profile: higher = expression change less like KSR1 knockdown

gene knocked down,mean correlation with KSR1 profile,mean distance from KSR1 profile,"KSR1 correlation, replicate 1"
TUBA4A (GeneID 7277),-0.18,2.85,-0.0517
CBX4 (GeneID 8535),0.525,3.52,-0.0567
EPS8L3 (GeneID 79574),0.431,2.04,0.474
VASH2 (GeneID 79805),-0.238,2.75,-0.149
CAMK4 (GeneID 814),0.121,1.65,0.271
MAP4K5 (GeneID 11183),-0.205,2.74,-0.24
RHOT1 (GeneID 55288),-0.304,2.62,-0.231
ENAM (GeneID 10117),-0.122,3.5,-0.0759
B3GNT4 (GeneID 79369),0.389,1.83,0.452
OR2L13 (GeneID 284521),0.505,2.49,0.589
ZMYND12 (GeneID 84217),-0.154,1.88,-0.253
KRT33A (GeneID 3883),0.568,2.3,0.408
RFXANK (GeneID 8625),0.743,1.27,0.364
TUT4 (GeneID 23318),-0.141,2.56,-0.654
STK32B (GeneID 55351),0.617,2.18,0.782
C1S (GeneID 716),-0.415,1.89,-0.328
SMYD2 (GeneID 56950),-0.101,1.37,-0.0129
MYLK2 (GeneID 85366),0.0132,1.87,-0.0434
ATP5F1E (GeneID 514),0.575,0.997,0.749
ACSL5 (GeneID 51703),0.0969,1.75,-0.103
UGDH (GeneID 7358),0.759,1.07,0.683
SLC35B4 (GeneID 84912),0.278,2.2,0.022
IL1RAPL2 (GeneID 26280),0.314,1.09,0.167
CEP152 (GeneID 22995),-0.402,1.87,-0.408
PGAM1 (GeneID 5223),-0.425,1.54,-0.238
PGCKA1 (GeneID 55286),-0.247,3.2,-0.123
TRAF3IP3 (GeneID 80342),0.153,2.78,-0.128
PPP1R9B (GeneID 84687),0.177,4.01,0.231
PEBP1 (GeneID 5037),0.807,0.854,0.501
TRIM7 (GeneID 81786),0.0794,2.36,0.00542
MRPS28 (GeneID 28957),-0.464,2.15,-0.754
FBP2 (GeneID 8789),0.192,1.27,0.269
PFN1P3 (GeneID 200025),-0.461,2.34,-0.123
HOOK1 (GeneID 51361),-0.0194,1.8,-0.563
